Assay results taken from patent publication US20170240955.

Chains of the proteins cited; added tags and fusions are not shown. Lines headed by an entry give the natural chain unless they say otherwise; changes in a name come on top.
UniProt P07636: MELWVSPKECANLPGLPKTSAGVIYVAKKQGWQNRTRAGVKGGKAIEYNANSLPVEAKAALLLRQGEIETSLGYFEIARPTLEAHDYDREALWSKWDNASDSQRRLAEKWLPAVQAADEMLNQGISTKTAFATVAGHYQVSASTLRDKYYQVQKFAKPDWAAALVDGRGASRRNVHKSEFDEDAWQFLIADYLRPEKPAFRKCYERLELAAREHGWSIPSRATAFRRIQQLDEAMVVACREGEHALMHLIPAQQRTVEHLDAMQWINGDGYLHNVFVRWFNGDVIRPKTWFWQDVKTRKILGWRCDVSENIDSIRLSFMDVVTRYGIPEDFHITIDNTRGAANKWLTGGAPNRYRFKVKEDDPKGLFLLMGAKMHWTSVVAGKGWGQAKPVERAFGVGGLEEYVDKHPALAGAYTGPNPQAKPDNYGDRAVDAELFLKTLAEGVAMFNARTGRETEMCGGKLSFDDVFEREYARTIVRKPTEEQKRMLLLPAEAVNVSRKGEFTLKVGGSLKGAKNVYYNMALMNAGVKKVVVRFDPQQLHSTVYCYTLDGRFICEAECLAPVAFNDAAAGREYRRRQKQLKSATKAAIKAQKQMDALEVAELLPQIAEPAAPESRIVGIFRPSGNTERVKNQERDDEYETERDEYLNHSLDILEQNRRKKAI

Target: MuA transposase (UniProt P07636)
Assay: activity assay
Settings: transposition of adapter into lambda DNA (SEQ 31); 25 mM Tris-HCl pH 8.0, 10 mM MgCl2, 110 mM NaCl, 30 C; Agilent chip trace; purified recombinant protein; protein details: Thermo

“GCGTTCTGTTTCGGATGTATGTTTTCATACATCCGAAACAGAACGCTTTTGTTTTCGCATTTATCGTGAAACGCTTTCGCGTTTTTCGTGCGCCGCTTCA / GATCTGAAGCGGCGCACGAAAAACGCGAAAGCGTTTCACGATAATGCGAAAAC [MuA adapter X]” was tested. Which “activity on this sequence” value did it give?
The value was “active”.
